The target in test [1] is T1, rhIL22R-Fc (rhesus IL22R ECD fused to human Fc) (rhesus monkey) (UniProt G7MHN4).
T1 sequence: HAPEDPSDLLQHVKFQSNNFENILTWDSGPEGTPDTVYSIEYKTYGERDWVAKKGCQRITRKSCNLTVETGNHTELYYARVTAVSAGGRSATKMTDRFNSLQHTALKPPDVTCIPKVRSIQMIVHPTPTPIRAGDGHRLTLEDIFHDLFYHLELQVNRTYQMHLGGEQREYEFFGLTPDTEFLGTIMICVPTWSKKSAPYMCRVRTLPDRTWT
The test is described as follows: ELISA and SPR (Biacore), mAb. (In general: In an ELISA, binding on a coated surface is turned into a signal by an enzyme label.)

Test [2] deals with T1, rhIL22R-Fc (rhesus IL22R ECD fused to human Fc) (rhesus monkey). Put plainly: summary table of cross-reactivity, mAb.

Substitutions are numbered along the chain they refer to. These are yes or no findings as the source states them, for the method shown. Some entries that bind do so weakly or less than the wild type. Sequences can lack the tags named with a protein.

B1: 166G8 mAb (antibody, IgG1, V domains shown)
VH: QVQLVESGGGLVQPGDSLRLSCAASGFTFGSYFMSWVRQAPGKGPEWVSGIHISGGITYYLDSVKGRFTISRDNAKNTLYLQMNNLKPEDTAVYYCVTPPGPFKAHYNGMKYWGKGTLVTVSS
VL: NFMLTQPPSVSGTLGKTVTISCTGTSRDIGDYNYVSWYQQLPGLAPKLLIYKVNTRSSGTPDRFSGSKSGNTASLTISGLQSEDEADYYCASYRLYADYVFGGGTHLTVL
Regarding B1, the binding result in test [1] and in test [2] was “binds” each time.

B2: 157A2 mAb (antibody, IgG1, V domains shown)
VH: QVQLVESGGGLVQPGGSLRLSCAASGFTFSSYDMSWVRQAPGKGLEWVSSIYNDGSNTAYSDSVKGRFTISRDNAKNTLYLQMNSLKSEDTAVYYCAKVGFSGTYYSESWGQGTQVTVSS
VL: NFMLTQPSAVSVSLGQTAKITCQGGYYAHWYQQKPGQAPVLVIYGNNNRPSGIPERFSGSSSGNTATLTISGAQAEDEAEYYCQSGSSSANAVFGGGTHLTVL
On to B2, for which the binding entry in test [1] and in test [2] was “binds” each time.

B3: 218A7 mAb (antibody, V domains shown)
VH: B2 VH
VL: B2 VL with N1L, F2P, M3V, K19R, N46Q, S61G, S62A, H99K
For B3, the binding result in test [2] is on record as “binds”.

The values above are taken from US20230088269A1.
